No constants are given. Whether binding was seen depends on the method and setting. In cells and extracts the contact can be indirect. These calls come from enrichment with a bait or labelling near it, and not all partners need be listed. No binding means not detected with the bait.

Protein sequences, listed by entry. Tags and fused reporters are not part of them.
UniProt Q9NDJ2: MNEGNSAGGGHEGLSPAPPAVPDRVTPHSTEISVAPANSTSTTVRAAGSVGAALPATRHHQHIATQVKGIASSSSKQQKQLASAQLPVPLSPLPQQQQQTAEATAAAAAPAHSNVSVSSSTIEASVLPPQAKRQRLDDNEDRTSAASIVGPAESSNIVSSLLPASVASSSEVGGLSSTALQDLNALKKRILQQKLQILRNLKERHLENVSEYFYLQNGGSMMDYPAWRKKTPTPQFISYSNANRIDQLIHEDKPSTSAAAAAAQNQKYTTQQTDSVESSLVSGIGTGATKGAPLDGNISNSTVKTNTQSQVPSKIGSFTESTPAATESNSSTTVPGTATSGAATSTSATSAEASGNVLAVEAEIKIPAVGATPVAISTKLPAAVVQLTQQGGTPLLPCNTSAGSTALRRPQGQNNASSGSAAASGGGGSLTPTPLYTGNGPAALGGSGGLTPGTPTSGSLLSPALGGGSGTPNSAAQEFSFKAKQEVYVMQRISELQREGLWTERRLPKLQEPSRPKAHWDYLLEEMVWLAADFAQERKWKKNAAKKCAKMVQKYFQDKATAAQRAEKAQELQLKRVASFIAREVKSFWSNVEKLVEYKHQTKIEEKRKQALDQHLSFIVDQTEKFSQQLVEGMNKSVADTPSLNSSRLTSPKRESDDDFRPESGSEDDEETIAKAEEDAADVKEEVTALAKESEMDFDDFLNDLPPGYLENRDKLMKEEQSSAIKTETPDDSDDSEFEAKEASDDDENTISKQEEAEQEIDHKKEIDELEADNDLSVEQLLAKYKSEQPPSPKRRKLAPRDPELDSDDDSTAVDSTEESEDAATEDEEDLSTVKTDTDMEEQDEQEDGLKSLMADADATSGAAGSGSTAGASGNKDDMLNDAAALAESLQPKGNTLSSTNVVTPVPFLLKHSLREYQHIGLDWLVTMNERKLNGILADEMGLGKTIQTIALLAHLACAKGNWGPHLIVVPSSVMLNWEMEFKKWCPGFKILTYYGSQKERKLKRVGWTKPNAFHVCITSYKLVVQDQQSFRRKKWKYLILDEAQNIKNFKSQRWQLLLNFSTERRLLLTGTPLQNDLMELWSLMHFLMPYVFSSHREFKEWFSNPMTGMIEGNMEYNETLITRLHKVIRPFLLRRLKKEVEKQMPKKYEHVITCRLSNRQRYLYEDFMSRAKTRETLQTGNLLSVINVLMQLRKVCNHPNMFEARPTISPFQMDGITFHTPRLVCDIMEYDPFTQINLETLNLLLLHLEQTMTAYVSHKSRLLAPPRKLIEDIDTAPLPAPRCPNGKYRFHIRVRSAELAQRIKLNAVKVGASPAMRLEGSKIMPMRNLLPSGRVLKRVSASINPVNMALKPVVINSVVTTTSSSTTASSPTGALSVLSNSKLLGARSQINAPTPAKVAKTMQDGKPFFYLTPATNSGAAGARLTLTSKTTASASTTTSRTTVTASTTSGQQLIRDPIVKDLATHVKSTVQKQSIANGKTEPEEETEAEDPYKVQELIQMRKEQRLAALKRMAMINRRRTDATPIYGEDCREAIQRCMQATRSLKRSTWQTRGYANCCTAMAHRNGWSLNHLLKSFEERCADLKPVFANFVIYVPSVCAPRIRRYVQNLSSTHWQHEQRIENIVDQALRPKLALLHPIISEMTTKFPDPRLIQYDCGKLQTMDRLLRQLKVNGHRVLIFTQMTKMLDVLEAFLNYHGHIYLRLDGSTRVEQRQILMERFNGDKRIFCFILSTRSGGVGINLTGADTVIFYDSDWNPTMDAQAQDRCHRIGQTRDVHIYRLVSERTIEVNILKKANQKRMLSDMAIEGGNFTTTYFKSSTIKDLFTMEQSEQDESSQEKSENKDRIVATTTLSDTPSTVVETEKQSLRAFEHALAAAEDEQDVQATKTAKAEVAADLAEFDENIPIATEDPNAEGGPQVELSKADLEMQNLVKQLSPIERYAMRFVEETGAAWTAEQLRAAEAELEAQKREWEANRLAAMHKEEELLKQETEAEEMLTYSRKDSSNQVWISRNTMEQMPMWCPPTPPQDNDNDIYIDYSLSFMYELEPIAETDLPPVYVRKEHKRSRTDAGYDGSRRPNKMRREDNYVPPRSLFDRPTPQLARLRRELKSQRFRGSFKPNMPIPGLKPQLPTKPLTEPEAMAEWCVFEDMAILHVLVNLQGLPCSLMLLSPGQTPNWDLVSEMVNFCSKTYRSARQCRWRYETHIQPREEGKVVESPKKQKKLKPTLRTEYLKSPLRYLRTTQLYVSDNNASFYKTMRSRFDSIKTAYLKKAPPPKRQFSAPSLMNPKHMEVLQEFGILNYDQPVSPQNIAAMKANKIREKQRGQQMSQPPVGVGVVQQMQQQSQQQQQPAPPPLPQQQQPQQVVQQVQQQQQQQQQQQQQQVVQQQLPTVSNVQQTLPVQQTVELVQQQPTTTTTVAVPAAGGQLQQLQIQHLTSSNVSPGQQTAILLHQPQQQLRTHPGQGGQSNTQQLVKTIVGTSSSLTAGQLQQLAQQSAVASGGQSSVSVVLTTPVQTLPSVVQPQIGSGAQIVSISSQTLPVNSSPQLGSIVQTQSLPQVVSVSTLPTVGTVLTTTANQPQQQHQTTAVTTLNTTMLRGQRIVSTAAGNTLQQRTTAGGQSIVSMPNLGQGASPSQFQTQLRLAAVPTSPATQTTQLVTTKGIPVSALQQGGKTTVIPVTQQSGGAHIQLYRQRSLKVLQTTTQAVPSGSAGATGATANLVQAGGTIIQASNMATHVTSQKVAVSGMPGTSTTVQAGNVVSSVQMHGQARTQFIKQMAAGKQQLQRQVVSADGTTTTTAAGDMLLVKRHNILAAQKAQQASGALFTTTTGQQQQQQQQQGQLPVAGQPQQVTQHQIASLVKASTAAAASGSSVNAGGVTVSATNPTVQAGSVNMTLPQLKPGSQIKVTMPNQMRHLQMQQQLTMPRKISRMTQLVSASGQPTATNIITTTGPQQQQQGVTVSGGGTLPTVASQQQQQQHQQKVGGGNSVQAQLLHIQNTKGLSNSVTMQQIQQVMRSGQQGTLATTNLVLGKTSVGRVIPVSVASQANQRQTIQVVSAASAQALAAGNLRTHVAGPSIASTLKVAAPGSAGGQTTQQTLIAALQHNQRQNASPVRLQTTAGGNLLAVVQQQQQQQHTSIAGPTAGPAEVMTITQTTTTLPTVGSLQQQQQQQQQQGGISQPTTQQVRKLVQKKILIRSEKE
UniProt Q960X4: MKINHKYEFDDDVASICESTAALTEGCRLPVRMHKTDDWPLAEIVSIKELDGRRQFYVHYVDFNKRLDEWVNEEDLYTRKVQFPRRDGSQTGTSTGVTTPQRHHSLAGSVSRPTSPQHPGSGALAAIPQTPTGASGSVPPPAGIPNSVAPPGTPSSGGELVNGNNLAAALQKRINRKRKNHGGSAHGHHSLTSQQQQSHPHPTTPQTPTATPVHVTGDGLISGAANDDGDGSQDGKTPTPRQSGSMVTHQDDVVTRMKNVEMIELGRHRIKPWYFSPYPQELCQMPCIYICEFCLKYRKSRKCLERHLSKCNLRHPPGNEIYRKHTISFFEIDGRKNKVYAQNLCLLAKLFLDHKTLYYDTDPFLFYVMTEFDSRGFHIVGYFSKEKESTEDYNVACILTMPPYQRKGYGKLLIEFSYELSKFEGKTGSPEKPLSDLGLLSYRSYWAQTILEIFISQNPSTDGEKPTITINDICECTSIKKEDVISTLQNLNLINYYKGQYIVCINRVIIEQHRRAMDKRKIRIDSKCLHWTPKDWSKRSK

In PMC7239659 one finds binding data, which are given here for 4 molecules.

This test concerns the target DOM-A (DOMINO isoform A, DOM-RA), endogenously 3XFLAG-tagged (D. melanogaster (endogenous in S2 cells)) (UniProt Q9NDJ2). The experiment in a line: affinity purification with mass spectrometry; FLAG-m2 beads on 2 mg nuclear extract of S2 cells with endogenously 3XFLAG-tagged DOM-A or DOM-B, against mock purification from untagged S2 cells; Protein-RIPA buffer (150 mM NaCl, 0.5% IGEPAL, 0.5% Na-deoxycholate, 0.1% SDS) diluted 1:1, Benzonase, 3 hr at 4°C; very stringent conditions; enriched: FDR < 0.05 and log2 fold-change >0.

As to NIPPED-A (from UniProt Q8I8U7 1-3790), the binding result is listed as “binds”.

With “TIP60 (from UniProt Q960X4 1-541) (enzyme)”, the binding entry is listed as “binds”.

B1: ARP6 (protein, UniProt P45890 1-398)
chain: MANAVVVLDNGAHTAKVGLANQDEPHVVPNCIMKAKSERRRAFVGNQIDECRDTSALYYILAFQRGYLLNWHTQKTVWDYIFSKDGIGCSLENRNIVITEPQMNFQSIQEATLEILFEEYKVDGVYKTTAADLAAFNYVADSEERTTMESLNCIIIDVGYSFTHVVPFVLGRRVLQGIRRIDMGGKALTNQLKELISYRHLNVMDESHVVNQIKEDVCFVAEDFKQAMQVHYSEEKRREVTVDYVLPDFTTVKRGYVRVPGKPREDEEQQQMVSLCNERFTVPELLFNPSDIGVQQVGIPEAVADCLKACPWEAHRELLLNILIVGGSAQFPGFLPRLKRDLRALVPDDLEVSLICPEDPVRYAWYGGKEVATSPNFEEFVYTQDDYEEYGFQGINQR
For the molecule B1, the binding entry is given as “no binding”.

B2: ING3 (protein, UniProt Q9VWS0 1-686)
chain: MLYLEDYLEMIEHLPQELRDRFTEMRELDLAVQNNMDSLDKKAHMFFKQCKRDELQHESMDTEFHSLRGEYFKVMEDADEKVAIATQIHELVERYLRRLDSELFKFKCELEADNNGITEILERRSLELDGNSTAATALLLSMNQKENRYYGASSANTMVNSSTGHATGAATGSSGIALVSGAAGTGGALSSISTAQLGSSQRHRKLEKRRETICTVPVQEKRANLNHSLPVVGSGSTTAAAASSSSATTAAAAASLASATTAQTHVSNHIGSIAATHLTLPVAMGVAGGSSSLASSSLATGTGSLVRQLPTNLTHTVLSTSGGATAAAAAGGNSTSVVAAGTAHGHAHVSGHSAAGATVTYNLQQLGGGAAASSAIAAAASQAIVATQQMQQGRRTASLKASYEAIHGTAGTTTDFWTQAGQGGLQQSTAGSVTVAAGTALATGAAGGSSTGSHHSHHSQSHHGGHGHGHGHGHGHGHGHGHHSSSGHGGGHSSHHQEKKQKKKLTTALTLPTVQPTAGSSSGNSIGSSSSISLESVNKLTTSAALAAASATTTYMSVGGQALLAMTPGGGGGGNLAESSAEGVPAGMIAMNLPTTTVTPGSSLTIGENGLVVEQTNEGEWSYDPNEPRYCTCNQVSYGDMVACDNDACPYEWFHYPCVGITQPPKGKWYCPKCTASMRRRGNRKN
Consider B2, for which the binding entry is “binds”.
